Data taken from PMC8537493.
These are yes or no findings as the source states them, for the method shown. Binding seen in cells or lysates may run through a third protein. Binding calls can cover weak binding; strength is not graded here.

What was measured:
[1] = biological target: T1, P2X4 receptor (P2X4R) (human (endogenous in immortalized human microglial cells)) (UniProt Q99571); assay: co-IP; lysates of human microglial cells (Pierce IP lysis buffer), treated or not with EVs for 2 h; immunoprecipitation with antibody against P2X4 receptor or against MFG-E8, protein A/G agarose, 4 °C; blots for MFG-E8 and P2X4 receptor
T1 sequence: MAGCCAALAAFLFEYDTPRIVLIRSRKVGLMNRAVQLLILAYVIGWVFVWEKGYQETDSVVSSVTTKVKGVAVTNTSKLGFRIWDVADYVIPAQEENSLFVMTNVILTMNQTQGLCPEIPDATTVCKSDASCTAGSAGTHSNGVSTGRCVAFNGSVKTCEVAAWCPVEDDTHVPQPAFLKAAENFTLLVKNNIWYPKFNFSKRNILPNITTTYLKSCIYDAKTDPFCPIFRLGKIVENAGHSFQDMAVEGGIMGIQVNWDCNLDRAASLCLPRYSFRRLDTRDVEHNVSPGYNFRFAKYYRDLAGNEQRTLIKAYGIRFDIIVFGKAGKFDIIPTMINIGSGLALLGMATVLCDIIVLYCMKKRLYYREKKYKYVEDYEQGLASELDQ

[2] = biological target: T1, P2X4 receptor (P2X4R) (human (endogenous in immortalized human microglial cells)); assay: proximity ligation; Duolink in situ PLA on fixed, permeabilised human microglial cells with antibodies against MFG-E8 and P2X4; cells untreated or treated with 1 AU of EVs for 30 min, 1 h and 2 h (2 h: PLA dots 4.3-fold of control)

With “milk fat globule-epidermal growth factor-factor VIII (MFG-E8)” the binding [1] was “binds” and the binding [2] was “binds”.
